Experimental data taken from PubChem BioAssay AID652054 (National Center for Advancing Translational Sciences (NCATS), 2013).
In all, about 360,000 compounds went through this assay and about 9,100 (2.5%) were called active. Inconclusive results, whose numbers are uncertain, are shown with a selection of clear calls. Rule as the data show it: active = max response below about -50%; inconclusive = no clear call, values can overlap the other calls; inactive = above that.

Chains of the proteins cited; added tags and fusions are not shown.
UniProt P35462, whole entry, looked up: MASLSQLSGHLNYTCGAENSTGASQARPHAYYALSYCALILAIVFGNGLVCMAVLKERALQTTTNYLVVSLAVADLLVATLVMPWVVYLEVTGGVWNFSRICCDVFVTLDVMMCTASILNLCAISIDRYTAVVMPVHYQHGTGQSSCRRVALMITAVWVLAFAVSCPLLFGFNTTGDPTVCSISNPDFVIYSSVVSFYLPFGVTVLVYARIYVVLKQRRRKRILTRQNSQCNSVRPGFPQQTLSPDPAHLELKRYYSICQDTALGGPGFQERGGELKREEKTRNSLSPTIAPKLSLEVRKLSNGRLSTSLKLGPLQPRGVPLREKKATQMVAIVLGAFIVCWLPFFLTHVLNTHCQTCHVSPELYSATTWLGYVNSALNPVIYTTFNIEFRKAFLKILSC

What follows are compounds tested against D(3) dopamine receptor (Homo sapiens) (UniProt P35462) (assay: qHTS of D3 Dopamine Receptor Antagonist: qHTS). Details: D3R cells, DiscoveRx beta-arrestin luminescence, antagonist mode; hits give low values.
Outline: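 Cells plated overnight at 1500 cells/well, then exposed to library compounds with dopamine controls for 90 minutes at 37 degrees C. DiscoveRx reagent added for 30–60 minutes at room temperature; luminescence read, quantitative HTS format.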
% is scaled to controls: 0 for no effect and ±100 for the full control effect.

SMILES	max response, negative = inhibition
COc1cc(/C=C\C(=O)NCc2ccc3c(c2)cc(C)n3C)cc(OC)c1OC	inconclusive: -49.8%
COc1ccc(OC)c(CN2CCC(Cc3ccccc3)CC2)c1	inconclusive: -43%
CCOC(=O)N1CCC(N2CCN(S(=O)(=O)CC)CC2)CC1	active: -133%
OC[C@@H]1CN(Cc2ccc3c(c2)OCO3)C[C@H](n2cnc3c(NCc4ccco4)ncnc32)O1	inactive: -5.45%
O=C1C2CCCN2C(=O)N1CCCCN1CCN(c2cccc(C(F)(F)F)c2)CC1 (stereo not drawn)	active: -115%
Cc1ccc(O)c(NC(=S)NC(=O)Cc2ccc(Cl)cc2)c1	inconclusive: -39.6%
Cc1cnc(CNC(=O)c2ccc3oc(C(C)C)nc3c2)[nH]1	inconclusive: -38.1%
O=C(Nc1nnc(SCC(=O)N2CCCCC2)s1)c1c(F)cccc1F	inactive: 5.77%
COc1ccc(S(=O)(=O)NCc2ccccn2)cc1NC(=O)c1ccc(Cl)cc1	inconclusive: -30.8%
COc1ccc(NC(=O)c2nc3ccccc3s2)cc1	inconclusive: -36.1%
CCOC(=O)c1c(NC(=O)Cc2cccs2)sc2c1CCCC2	inconclusive: -48.2%
CCOc1ccccc1NC(=O)COC(=O)c1nc2nccc(C)n2n1	inactive: 15.3%
Cc1cccc(N2CCN(c3nc4ccc(Cl)cc4n4cnnc34)CC2)c1C	inactive: 15.7%
O=C(O)CC1S/C(=N/N=C/C=C/c2ccccc2)NC1=O (stereo not drawn)	inconclusive: -34.7%
CC1=CC(C)(C)NC(=S)N1CCO	inconclusive: -31.1%
CS(=O)(=O)N(Cc1ccccc1F)c1ccccc1	inconclusive: -37.9%
O=C(CNC(=O)c1ccccc1Br)N/N=C\c1cc([N+](=O)[O-])cc(Br)c1O	active: -75.7%
N#Cc1c(N)nc(N2CCCC2)c(C#N)c1-c1ccc(Cl)cc1	inactive: -15.6%
N#Cc1c2n(c3c(=O)n(Cc4ccccc4Cl)cnc13)CCCCC2	inconclusive: -36.9%
N=C1/C(=C\c2coc3ccccc3c2=O)C(=O)N=C2SC(c3ccncc3)=NN12	inconclusive: -30%
Cc1cc(N2CCN(Cc3ccccc3)CC2)n2nc(C)c(-c3ccccc3)c2n1	inconclusive: -35.3%
Cc1cc(C)c(N2C(=O)CC(Sc3ccccc3N)C2=O)c(C)c1 (stereo not drawn)	inconclusive: -31.4%

Some values from above.
Under max response, negative = inhibition, OC[C@@H]1CN(Cc2ccc3c(c2)OCO3)C[C@H](n2cnc3c(NCc4ccco4)ncnc32)O1 has inactive: -5.45%
Under max response, negative = inhibition, Cc1cc(N2CCN(Cc3ccccc3)CC2)n2nc(C)c(-c3ccccc3)c2n1 has inconclusive: -35.3%

Next structures.

SMILES	max response, negative = inhibition
COc1ccc(C2c3[nH]c4ccccc4c3CCN2C(=O)c2cn3ccccc3n2)c(F)c1 (stereo not drawn)	inconclusive: -49.7%
COc1ccc(/C=C/C(=O)Nc2sc3c(c2C(=O)NCc2cccnc2)CCCC3)cc1	inconclusive: -42.2%
Cc1ccc2c(c1)C(=O)C(=O)N2Cc1ccc(Cl)cc1	active: -63.6%
COc1ccc(/C=C/C(=O)NC(=S)NNC(=O)c2ccco2)cc1	inconclusive: -34.5%
CCOc1ccc(CN2CCNC(=O)C2CC(=O)NCCCOc2cccnc2)cc1 (stereo not drawn)	inconclusive: -33.5%
N#Cc1c(N2CCOCC2)nsc1-c1ccccc1	inactive: -15.5%
Cc1cccc2nc(CSc3ccc(Cl)cc3)cn12	inconclusive: -31.5%
Cc1ccc(C(=O)Oc2cccnc2)cc1[N+](=O)[O-]	inconclusive: -36.1%
Cc1ccc(NC(=O)Cn2c(=O)oc3cc(S(=O)(=O)N4CCC(C)CC4)ccc32)cc1C	inconclusive: -47.3%
CC12CN3CC(C)(CN(C1)C3c1ccc(Br)cc1O)C2 (stereo not drawn)	inconclusive: -40.9%
Cn1c(=O)cc(SCC(=O)NCCN2CCN(c3ccccc3F)CC2)c2cc(Cl)ccc21	active: -63.3%
CC(C)n1cc(CN2CCC(C(=O)Nc3ccc(Oc4ccccc4F)cc3)CC2)cn1	active: -60.8%
CCOC(=O)CC1C(=O)NCCN1C(=O)NC1CCCCC1 (stereo not drawn)	inconclusive: -36.9%
O=C(COC(=O)c1ccc([N+](=O)[O-])cc1Cl)Nc1cccnc1Cl	inconclusive: -33.8%
CSc1ccccc1OCc1cc(C(=O)NCCN2CCCC(O)C2)no1 (stereo not drawn)	inactive: -24.5%
CCOc1ccc(C(=O)NCC(=O)N2CCCCCCC2)cc1	inconclusive: -32.6%
CCC(=O)NC(c1ccco1)c1cc(Cl)c2cccnc2c1O (stereo not drawn)	inconclusive: -45.1%
CC1=CC(C)(C)N(C)C(=O)N1c1ccc(Cl)cc1	inconclusive: -43.9%
O=[N+]([O-])c1ccc(N(CC(O)CN2CCCCC2)S(=O)(=O)c2ccccc2)cc1 (stereo not drawn)	inconclusive: -50%
CCc1cc(C(=O)OC)c(NC(=O)CC2Nc3cc(C)c(C)cc3NC2=O)s1 (stereo not drawn)	inconclusive: -38.2%
CCCCN(CCCC)CCNC(=O)c1cn(CC)c2ccc(S(=O)(=O)N(C)C3CCCCC3)cc2c1=O	inconclusive: -31.3%
Cc1sc2nc[nH]c(=O)c2c1-c1ccc(Cl)cc1	inconclusive: -34.1%

SMILES	max response, negative = inhibition
CCOc1nc(NCCc2ccc(OC)c(OC)c2)nc(NC(C)(C)CO)n1	active: -61.8%
COC(=O)c1cc2ccsc2n1CC(=O)Nc1cc(C)cc(C)c1	active: -73.5%
CSc1ccc(/C=C/C(=O)c2ccc(O)cc2)cc1	inconclusive: -43.4%
Cc1ccc2nc(NC(=O)C3CCN(S(=O)(=O)c4cnc[nH]4)CC3)sc2c1	inconclusive: -42.3%
COc1cc2[nH]c(-c3ccc(C)cc3)cc(=O)c2cc1OC	active: -112%
CCOc1cc(/C=C2\SC(N)=NC2=O)ccc1O	inconclusive: -40.9%
COc1ccc(C(=O)CN2CCN(CCN3C(=O)c4cccc5cccc(c45)C3=O)CC2)cc1	inactive: -6.08%
COc1ccc(N2CC(O)=C(c3nc(-c4ccc(F)cc4)cs3)C2=N)cc1OC	inactive: 28.6%
O=C(O)c1ccccc1NS(=O)(=O)c1ccc(N/N=C/c2cccc(O)c2O)c([N+](=O)[O-])c1	inconclusive: -47.1%
O=C(O)c1ccc(C[n+]2c(-c3ccccc3)csc2Nc2ccccc2)cc1	inconclusive: -30%
Oc1ccc(N=Nc2ccc3c(c2)OCCO3)c(O)c1	inconclusive: -36%
COc1ccc(/C=N/NC(=O)c2ccc(Br)cc2)c(OC)c1	inconclusive: -46%
CC1=CC(=O)C=C(C)C1=NOC(=O)c1cccc([N+](=O)[O-])c1	active: -82.5%
CN1OC[C@@H]2CN[C@H](c3ccc(-c4ccc(C#N)cc4)cc3)C[C@@H]21	inconclusive: -35.5%
COc1ccc2sc(N(CCN(C)C)C(=O)c3ccc4ccccc4c3)nc2c1	inconclusive: -36.9%
COc1cc(C2C(C#N)=C(N)OC3=C2C(=O)CC(C)(C)C3)cc([N+](=O)[O-])c1O (stereo not drawn)	inconclusive: -42.1%
CC/C(C)=N/Oc1nc(C)cc(C)n1	inconclusive: -32.7%
Cn1[nH]c(C(F)(F)F)c(C=Nc2ccc(Cl)cc2)c1=O	active: -62.7%
O=C(CSCc1ccc([N+](=O)[O-])cc1)Nc1cccc(C(=O)Nc2ccccc2C(=O)O)c1	inconclusive: -30.7%
O=C(Nc1cccnc1)c1cc(-c2ccco2)on1	inconclusive: -30.5%
O=S(=O)(NC1CCN(Cc2ccccc2)CC1)c1cccc2cccnc12	inconclusive: -39.6%
CC[C@H](C)[C@H](NC(N)=O)C(=O)Nc1ccc(OC)c(Cl)c1	inactive: -0.929%

In another format: results already given.
CSc1ccc(/C=C/C(=O)c2ccc(O)cc2)cc1
  max response, negative = inhibition: inconclusive: -43.4%
Cc1ccc2nc(NC(=O)C3CCN(S(=O)(=O)c4cnc[nH]4)CC3)sc2c1
  max response, negative = inhibition: inconclusive: -42.3%

Later entries.

SMILES	max response, negative = inhibition
Nc1cc(Cl)ccc1C(=O)OCC(=O)NC1CCCCCCC1	inconclusive: -46.7%
Cc1[nH][nH]c(=O)c1C(c1ccc([N+](=O)[O-])cc1)c1c(C)[nH][nH]c1=O	inconclusive: -38.7%
O=C1CCN(CCc2ccccc2)CCN1[C@H](CSc1ccc(Br)cc1)c1ccccc1	inconclusive: -31.4%
CCCN(CCC)S(=O)(=O)c1ccc(Cl)c([N+](=O)[O-])c1	inconclusive: -45.5%
O=C(O)C1CCCCC1C(=O)N1CC=C(c2ccccc2)CC1 (stereo not drawn)	inconclusive: -46.6%
Cc1ccccc1C(=O)Nc1cccc(NC(=S)NC(=O)c2cccs2)c1	inactive: -11.1%
Oc1[nH]c(N=C2N=c3ccccc3=N2)c2ccccc12	inactive: 11.8%
CCOC(=O)C(=O)N(C)c1c(CC)nc2c(OCCC3CCCCC3)cccn12	active: -84.4%
COc1cc(C2C3CN(C)CC=C3C(C#N)=C(N)C2(C#N)C#N)ccc1OC(C)C (stereo not drawn)	inconclusive: -41.6%
CC1(C)Cc2cccc(C(=O)NC3CCN(Cc4ccccc4)CC3)c2O1	active: -76.7%
O=C(CSc1nc2ccccc2c(=O)n1-c1ccc(F)c(Cl)c1)Nc1ccc2c(c1)CCC2	inconclusive: -34.4%
CN(Cc1ccc(OCC(O)CN2CCCCC2)cc1)Cc1ccnc2ccccc12 (stereo not drawn)	inconclusive: -42.4%
O=C(CC1NCCc2ccccc21)Nc1ccccc1Cl (stereo not drawn)	inconclusive: -39.9%
COCCn1c(SCC(=O)Nc2ccc(NC(=O)c3ccco3)c(OC)c2)nc2ccccc2c1=O	inconclusive: -33.9%
Cc1ccc(N(C(=O)c2cccs2)C2C=CS(=O)(=O)C2)cc1 (stereo not drawn)	inconclusive: -39.4%
COc1ccccc1CNC(=O)CCn1c(=O)sc2ccccc21	active: -166%
O=[N+]([O-])c1c(Nc2ccc(O)cc2)cc(N2CCOCC2)c2nonc12	inconclusive: -31.7%
CNC(=S)N(CCc1c(C)[nH]c2ccccc12)Cc1cccnc1	inconclusive: -43.3%
COc1ccc(N=C2C(=O)Nc3ccc(C)c(Br)c32)cc1	inconclusive: -38.3%
Fc1ccc(Nc2nnc(C(F)(F)F)s2)cc1Cl	inactive: 3.71%
O=[N+]([O-])c1cccc(-c2nnn(C34CC5CC(CC(C5)C3)C4)n2)c1	inconclusive: -33.7%
CCc1cccc2cc3c(N)c(C(=O)Nc4ccc(S(=O)(=O)N5CCCC5)cc4)sc3nc12	inactive: -0.347%
